# Test system: anisodine-induced memory impairment mice
# Test: Anisodine-induced memory impairment of mice
# Assay type: in vivo
# Details: 0.5 mg/kg, gavage
structure (smiles),measurement,value
"COc1cc2c(cc1OC)C(=O)C(CC1CCN(Cc3ccccc3)CC1)C2 (centres unmarked) [Aricept, Donepezil]",Electricity-avoiding latency,255.9 ± 126.1 s
same,Number of error,0.20 ± 0.18 times

# Reference: patent US20100034903A1, “SHINYLEAF YELLOWHORN EXTRACT, METHODS FOR EXTRACTION AND USES THEREOF” (priority 2006, published 2010)
